The text below walks through data of patent US20150098946A1 (Genentech, published 2015).

Chains of the proteins cited; added tags and fusions are not shown. Lines headed by an entry give the natural chain unless they say otherwise; changes in a name come on top.
UniProt P07949: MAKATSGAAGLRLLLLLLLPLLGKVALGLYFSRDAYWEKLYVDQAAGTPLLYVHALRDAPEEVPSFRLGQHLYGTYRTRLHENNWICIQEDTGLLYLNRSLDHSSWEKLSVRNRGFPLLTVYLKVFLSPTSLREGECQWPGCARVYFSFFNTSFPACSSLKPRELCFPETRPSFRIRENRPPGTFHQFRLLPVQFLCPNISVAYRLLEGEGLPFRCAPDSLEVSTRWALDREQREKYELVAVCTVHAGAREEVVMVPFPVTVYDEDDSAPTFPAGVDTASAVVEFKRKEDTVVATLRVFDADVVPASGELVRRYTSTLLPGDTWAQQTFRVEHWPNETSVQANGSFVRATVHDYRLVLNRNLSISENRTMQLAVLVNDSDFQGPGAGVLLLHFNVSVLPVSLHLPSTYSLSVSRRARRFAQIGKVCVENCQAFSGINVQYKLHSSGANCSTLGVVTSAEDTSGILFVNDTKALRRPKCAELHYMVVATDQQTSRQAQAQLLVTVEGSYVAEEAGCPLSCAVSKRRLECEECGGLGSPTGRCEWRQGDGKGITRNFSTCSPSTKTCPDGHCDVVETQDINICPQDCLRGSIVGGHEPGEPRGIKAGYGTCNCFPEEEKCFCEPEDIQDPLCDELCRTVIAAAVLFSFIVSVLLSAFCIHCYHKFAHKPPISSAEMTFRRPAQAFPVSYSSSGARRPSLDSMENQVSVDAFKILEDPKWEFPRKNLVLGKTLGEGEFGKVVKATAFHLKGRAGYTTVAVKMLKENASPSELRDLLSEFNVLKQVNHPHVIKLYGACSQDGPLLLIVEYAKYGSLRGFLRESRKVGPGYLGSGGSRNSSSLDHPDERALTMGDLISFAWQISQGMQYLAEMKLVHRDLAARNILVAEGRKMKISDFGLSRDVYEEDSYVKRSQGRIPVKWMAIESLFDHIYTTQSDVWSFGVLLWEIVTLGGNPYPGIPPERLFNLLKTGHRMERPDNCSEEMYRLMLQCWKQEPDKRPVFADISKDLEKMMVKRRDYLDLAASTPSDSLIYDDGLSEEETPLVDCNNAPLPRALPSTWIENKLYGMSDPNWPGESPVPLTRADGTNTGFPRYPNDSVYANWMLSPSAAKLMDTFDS

Results are given in words; binding and its absence hold for the method and conditions named. Some entries that bind do so weakly or less than the wild type.

To fix the notation:
B1: anti-TAT194 monoclonal antibody R4209 (antibody, V domains shown)
VH: EVNLEESGGGLVQPGGSMKLSCVASGFTFSNYWMNWVRQSPEKGLEWVADISLKSNNYGTHYAESVNGRFTISRDDSTSSVYLQMNNLRAEDTGIYYCAVYYYGVKFYYFVLGYWGQGTSVTVSS
VL: DIVMTQSHKFMSTSVGDRVSITCKASQDVSTAVAWYQQKPGQSPKLLIYWGSTRHTGVPDRFTGVGSGTDYSLTISSVQAEDLALYYCQQHYNIPWTFGGGTKLEIKR
notes: Monoclonal antibody from a mouse hybridoma; kappa VL
B2: anti-TAT194 monoclonal antibody R4203 (antibody, V domains shown)
VH: EVQLQQSGPELVKPGASMKISCKASGYSFTGFTMNWVKQSHGKNLEWIGLINPYNGVTNYNQKFRGKATLTVDESSSTAYMDLLSLTSEDSAVYYCARHYSFAMDYWGQGTSVTVSS
VL: DIVLTQSPASLAVSLGQRATISCRASESVDGYGSSFMHWYQQKPGQPPKLLIYRTSNLESGIPARFSGSGSTTDFTLTINPVEADDVATYYCQQNSEDRTFGGGTKLEIKR
notes: as for B1
B3: anti-TAT194 monoclonal antibody R4205 (antibody, V domains shown)
VH: QVQLKESGPGLVKPSQSLSLTCTVTGYSITSDYVWNWIRQFPGNKLEWMGYIHYSGGTSYNPSLKSRISITRDTSKNQFFLHLNSLTTEDTATYYCARGNYDWAFAYWGQGTLVTVSA
VL: DVQITQSPSYLAASPGETITINCRASKSISKYLAWYQDKPGKTNKLLISSGSTLQSGIPSRFSGSGSGADFTLTISSLEPEDFAMYYCQQHNEYPWTFGGGTKLEIKR
notes: Monoclonal antibody from a mouse hybridoma; kappa VL; also called anti-RET murine monoclonal antibody clone 4205
B4: anti-TAT194 monoclonal antibody R4206 (antibody, V domains shown)
VH: DVQLQESGPGLVKPSQSLSLTCTVTGFSITSDYAWNWIRQFPGNKLEWMAYITYSGDTGYNPSLKSRISVTRDTSKNQFFLQLSSVTTEDTATYYCARGNYDWVFAYWGQGTLVTVSA
VL: DVQITQSPSYLAASPGETITINCRASKSISKYLAWYQEKPGKTNKLLIYSGSTLQSGIPSRFSGSGSGTDFTLTISSLEPEDFAMYYCQQYIEYPWTFGGGTKLEIKR
notes: as for B1
B5: anti-TAT194 monoclonal antibody R4207 (antibody, V domains shown)
VH: DVQLQESGPGLVKPSQSLSLTCTVTGFSITSDYAWNWIRQFPGNKLEWMAYITYSGDTGYNPSLKSRISVTRDTSKNQFFLQLSSVTTEDTATYYCARGNYDWVFAYWGQGTLVTVSA
VL: DVQITQSPSYLAASPGETITINCRASKSISKYLAWYQEKPGKTNKLLIYSGSTLQSGIPSRFSGSGSGTDFTLTISSLEPEDFAMYYCQQYIEYPWTFGGGTKLEIKR
notes: as for B1
B6: anti-TAT194 monoclonal antibody R4204 (antibody, V domains shown)
VH: QVQLQQSGAELAKPGTSVKMSCKASGYTFTTYWMHWIKQRPGQGLEWIGYINPSTGYSEYNQKFKDKATLTADRSSSTAYMQLSSLTSEDSTVYYCARWRFYGSTYGMDYWGQGTSVTVSS
VL: QIVLTQSPALMSAFPGEKVTLTCSASSSVTYMYWYQQKPRSSPKPWIYLTSKLASGVPSRFSGSGSGTSFSLTITSMEAEDAATYYCQQWTGNPLTFGAGTKLELKR
notes: as for B1
B7: anti-TAT194 monoclonal antibody R4208 (antibody, V domains shown)
VH: QVHLQQSGSELRSPGSSVKLSCKDFDSEVFPIAYMSWVRQKPGHGFEWIGDILPNIGRTIYGEKFEDKATLDADTVSNTAYLELNSLTSEDSAMYYCGRSITRAWFAYWGQGTLVTVSV
VL: DIQMTQSPSSLSASLGERVSLTCRASQEISGYLSWFQQKPDGTIKRLIYAASTLDSGVPKRFSGSRSGSDYSLTISSLASEDFADYFCLQYAGNPFTFGSGTKLEIKR
notes: as for B1

The assay concerns the target TAT194 polypeptide on the cell surface (293 cells transfected to express TAT194, 293-RET; tumor cells) (human) (UniProt P07949). Nature of the assay: binding to cells expressing TAT194 (FACS and other routine techniques).
In the case of B1, the binding result was “binds”.

As for B2, the binding entry was “binds”.

Take B3: the binding entry is listed as “binds”.

With B4, the binding entry is “binds”.

Regarding B5, the binding result is reported as “binds”.

On to B6, for which the binding result was “binds”.

For the molecule B7, the binding entry was “binds”.
